Assay results taken from the supplement of paper PMC8728848.
Some of the results follow.

What was measured:
Assay in all cases: glycan array binding signal (z-score within array); higher = stronger binding
Conditions in all cases: glycan notation: IUPAC condensed, linker removed
Gal3S(b1-4)Glc = biological target: Gal3S(b1-4)Glc
Summary of the method: (§1)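 Glycan array data were curated from 3228 arrays in the Consortium for Functional Glycomics database and kept only where the protein sequence was available. Glycan names were converted to IUPAC-condensed notation, and columns mapping to the same glycan were averaged. The binding signal is a within-array Z-score, averaged across arrays of the same protein sequence at different concentrations or buffers and across linkers. Negative Z-scores can be read as non-binding.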

Gal3S(b1-4)Glc6S = biological target: Gal3S(b1-4)Glc6S
Summary of the method: as §1

Gal3S(b1-4)GlcNAc = biological target: Gal3S(b1-4)GlcNAc
Summary of the method: as §1

[1] = biological target: Gal3S(b1-4)[Fuc(a1-3)]Glc6S
Summary of the method: as §1

[2] = biological target: Gal3S(b1-4)[Fuc(a1-3)]GlcNAc
Summary of the method: as §1

[3] = biological target: Gal3S(b1-4)[Fuc(a1-3)]GlcNAc6S
Summary of the method: as §1

Gal3S4S(b1-4)GlcNAc = biological target: Gal3S4S(b1-4)GlcNAc
Summary of the method: as §1

Gal3S6S(b1-4)GlcNAc = biological target: Gal3S6S(b1-4)GlcNAc
Summary of the method: as §1

Gal3S6S(b1-4)GlcNAc6S = biological target: Gal3S6S(b1-4)GlcNAc6S
Summary of the method: as §1

Gal4S(b1-4)GlcNAc = biological target: Gal4S(b1-4)GlcNAc
Summary of the method: as §1

Gal4S6S(b1-4)GlcNAc = biological target: Gal4S6S(b1-4)GlcNAc
Summary of the method: as §1

Gal6P(b1-4)GlcNAc = biological target: Gal6P(b1-4)GlcNAc
Summary of the method: as §1

Gal6S(b1-3)GlcNAc = biological target: Gal6S(b1-3)GlcNAc
Summary of the method: as §1

Gal6S(b1-3)GlcNAc6S = biological target: Gal6S(b1-3)GlcNAc6S
Summary of the method: as §1

Gal6S(b1-4)Glc = biological target: Gal6S(b1-4)Glc
Summary of the method: as §1

Gal6S(b1-4)Glc6S = biological target: Gal6S(b1-4)Glc6S
Summary of the method: as §1

Gal6S(b1-4)GlcNAc = biological target: Gal6S(b1-4)GlcNAc
Summary of the method: as §1

Gal6S(b1-4)GlcNAc6S = biological target: Gal6S(b1-4)GlcNAc6S
Summary of the method: as §1

GalNAc(a1-3)Gal = biological target: GalNAc(a1-3)Gal
Summary of the method: as §1

GalNAc(a1-3)GalNAc = biological target: GalNAc(a1-3)GalNAc
Summary of the method: as §1

[4] = biological target: GalNAc(a1-3)GalNAc(b1-3)Gal(a1-4)Gal(b1-4)Glc
Summary of the method: as §1

[5] = biological target: GalNAc(a1-3)GalNAc(b1-3)Gal(a1-4)Gal(b1-4)GlcNAc
Summary of the method: as §1

GalNAc(b1-3)Gal = biological target: GalNAc(b1-3)Gal
Summary of the method: as §1

[6] = biological target: GalNAc(b1-3)Gal(a1-4)Gal(b1-4)GlcNAc
Summary of the method: as §1

[7] = biological target: GalNAc(b1-3)Gal(a1-4)Gal(b1-4)GlcNAc(b1-3)Gal(b1-4)Glc
Summary of the method: as §1

[8] = biological target: GalNAc(b1-3)Gal(a1-6)Gal(b1-4)Glc
Summary of the method: as §1

GalNAc(b1-3)GalNAc = biological target: GalNAc(b1-3)GalNAc
Summary of the method: as §1

GalNAc(b1-3)GlcNAc = biological target: GalNAc(b1-3)GlcNAc
Summary of the method: as §1

GalNAc(b1-4)Gal(b1-4)Glc = biological target: GalNAc(b1-4)Gal(b1-4)Glc
Summary of the method: as §1

GalNAc(b1-4)GlcNAc = biological target: GalNAc(b1-4)GlcNAc
Summary of the method: as §1

[9] = biological target: GalNAc(b1-4)GlcNAc(b1-2)Man
Summary of the method: as §1

[10] = biological target: GalNAc(b1-4)GlcNAc(b1-2)Man(a1-3)[GalNAc(b1-4)GlcNAc(b1-2)Man(a1-6)]Man(b1-4)GlcNAc(b1-4)GlcNAc
Summary of the method: as §1

[11] = biological target: GalNAc(b1-4)GlcNAc(b1-3)GalNAc(b1-4)GlcNAc
Summary of the method: as §1

GalNAc(b1-4)GlcNAc6S = biological target: GalNAc(b1-4)GlcNAc6S
Summary of the method: as §1

GalNAc(b1-6)GalNAc = biological target: GalNAc(b1-6)GalNAc
Summary of the method: as §1

GalNAc3S(b1-4)GlcNAc = biological target: GalNAc3S(b1-4)GlcNAc
Summary of the method: as §1

GalNAc3S(b1-4)GlcNAc3S = biological target: GalNAc3S(b1-4)GlcNAc3S
Summary of the method: as §1

[12] = biological target: GalNAc3S(b1-4)[Fuc(a1-3)]GlcNAc
Summary of the method: as §1

GalNAc4S6S(b1-4)GlcNAc = biological target: GalNAc4S6S(b1-4)GlcNAc
Summary of the method: as §1

GalNAc6S(b1-4)GlcNAc = biological target: GalNAc6S(b1-4)GlcNAc
Summary of the method: as §1

Glc(a1-4)Glc = biological target: Glc(a1-4)Glc
Summary of the method: as §1

[13] = biological target: Glc(a1-4)Glc(a1-4)Glc(a1-4)Glc
Summary of the method: as §1

Glc(a1-6)Glc(a1-6)Glc = biological target: Glc(a1-6)Glc(a1-6)Glc
Summary of the method: as §1

[14] = biological target: Glc(a1-6)Glc(a1-6)Glc(a1-6)Glc
Summary of the method: as §1

Glc(b1-4)Glc = biological target: Glc(b1-4)Glc
Summary of the method: as §1

B1: Pwp1 (Candida glabrata) (protein)
chain: MGSSHHHHHHSSGLVPRGSHMASANPISITNVCQFPDNWARTAGFQATTVRLGLTIASNTYKELLNYPGLFNFATQKATVTQPNFSISGFPFFTGLYGLTVWPINLLVELQGYFVPPESGNYTFTLQGSDDAAILFFANPSTFACGSQNDWPQPREADITVTDTLVPSRTLYLVKGVAYPIRIAYYNGSGDGKLNVSFKDPSGTTHTDWKGYVWQYSNTCSTCTYT
How did the “glycan array binding signal (z-score)” value (Gal3S(b1-4)Glc) turn out when B1 was run?
The value was 0.803.

What about the “glycan array binding signal (z-score)” value (Gal3S(b1-4)Glc6S) of the same binder?
Its value is 0.562.

And the “glycan array binding signal (z-score)” value (Gal3S(b1-4)GlcNAc)?
Its value is 0.127.

And the “glycan array binding signal (z-score)” value [1]?
The value was -0.627.

What about the “glycan array binding signal (z-score)” value [2] of the same binder?
Its value is -0.856.

What about the “glycan array binding signal (z-score)” value [3] of the same binder?
The value was -1.19.

What about the “glycan array binding signal (z-score)” value (Gal3S4S(b1-4)GlcNAc) of the same binder?
Its value is 1.08.

And the “glycan array binding signal (z-score)” value (Gal3S6S(b1-4)GlcNAc)?
Its value is -1.54.

What about the “glycan array binding signal (z-score)” value (Gal3S6S(b1-4)GlcNAc6S) of the same binder?
Its value is -1.07.

And the “glycan array binding signal (z-score)” value (Gal4S(b1-4)GlcNAc)?
The value was 0.267.

What about the “glycan array binding signal (z-score)” value (Gal4S6S(b1-4)GlcNAc) of the same binder?
Its value is 0.962.

And the “glycan array binding signal (z-score)” value (Gal6P(b1-4)GlcNAc)?
Its value is 1.06.

What about the “glycan array binding signal (z-score)” value (Gal6S(b1-3)GlcNAc) of the same binder?
The value was -0.307.

What about the “glycan array binding signal (z-score)” value (Gal6S(b1-3)GlcNAc6S) of the same binder?
Its value is 0.761.

What about the “glycan array binding signal (z-score)” value (Gal6S(b1-4)Glc) of the same binder?
The value was -0.004.

What about the “glycan array binding signal (z-score)” value (Gal6S(b1-4)Glc6S) of the same binder?
Its value is 1.28.

What about the “glycan array binding signal (z-score)” value (Gal6S(b1-4)GlcNAc) of the same binder?
Its value is -0.434.

What about the “glycan array binding signal (z-score)” value (Gal6S(b1-4)GlcNAc6S) of the same binder?
The value was -0.888.

What about the “glycan array binding signal (z-score)” value (GalNAc(a1-3)Gal) of the same binder?
The value was 1.19.

What about the “glycan array binding signal (z-score)” value (GalNAc(a1-3)GalNAc) of the same binder?
Its value is -0.072.

What about the “glycan array binding signal (z-score)” value [4] of the same binder?
Its value is 0.022.

What about the “glycan array binding signal (z-score)” value [5] of the same binder?
Its value is -0.037.

And the “glycan array binding signal (z-score)” value (GalNAc(b1-3)Gal)?
The value was 0.709.

And the “glycan array binding signal (z-score)” value [6]?
Its value is 1.43.

And the “glycan array binding signal (z-score)” value [7]?
The value was 1.77.

What about the “glycan array binding signal (z-score)” value [8] of the same binder?
Its value is 1.15.

What about the “glycan array binding signal (z-score)” value (GalNAc(b1-3)GalNAc) of the same binder?
The value was -0.85.

And the “glycan array binding signal (z-score)” value (GalNAc(b1-3)GlcNAc)?
Its value is 0.541.

And the “glycan array binding signal (z-score)” value (GalNAc(b1-4)Gal(b1-4)Glc)?
Its value is 0.092.

And the “glycan array binding signal (z-score)” value (GalNAc(b1-4)GlcNAc)?
The value was 1.03.

And the “glycan array binding signal (z-score)” value [9]?
Its value is -0.855.

And the “glycan array binding signal (z-score)” value [10]?
The value was 0.543.

What about the “glycan array binding signal (z-score)” value [11] of the same binder?
Its value is 1.1.

What about the “glycan array binding signal (z-score)” value (GalNAc(b1-4)GlcNAc6S) of the same binder?
Its value is 1.38.

And the “glycan array binding signal (z-score)” value (GalNAc(b1-6)GalNAc)?
Its value is -0.226.

What about the “glycan array binding signal (z-score)” value (GalNAc3S(b1-4)GlcNAc) of the same binder?
Its value is -1.06.

And the “glycan array binding signal (z-score)” value (GalNAc3S(b1-4)GlcNAc3S)?
Its value is 0.192.

And the “glycan array binding signal (z-score)” value [12]?
Its value is -0.41.

What about the “glycan array binding signal (z-score)” value (GalNAc4S6S(b1-4)GlcNAc) of the same binder?
Its value is 0.907.

What about the “glycan array binding signal (z-score)” value (GalNAc6S(b1-4)GlcNAc) of the same binder?
The value was 0.324.

What about the “glycan array binding signal (z-score)” value (Glc(a1-4)Glc) of the same binder?
Its value is -0.151.

What about the “glycan array binding signal (z-score)” value [13] of the same binder?
The value was 0.015.

What about the “glycan array binding signal (z-score)” value (Glc(a1-6)Glc(a1-6)Glc) of the same binder?
The value was 1.17.

What about the “glycan array binding signal (z-score)” value [14] of the same binder?
The value was -1.11.

And the “glycan array binding signal (z-score)” value (Glc(b1-4)Glc)?
The value was 0.697.
